Laboratory results as given in PubChem BioAssay AID2685 (National Center for Advancing Translational Sciences (NCATS), 2010).
Some of the results follow. These are further read-outs of the screen, such as a control signal, another cell line or another target. No call is given for them. Compounds called inactive in the main read-out are mostly missing here. The note in brackets gives the kind of curve behind each potency; many fits are weak.

Test: qHTS Assay for Lipid Storage Modulators in Drosophila S3 Cells;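 as to cell number change: cells counted by Cell Tracker Red CMTPX staining in the red channel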
Details: BODIPY lipid droplet fluorescence, 18-24 h; for cell number change: measured here: cell count max response, cells fed with added oleic acid
Procedure, shortened: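 Laser-scanning cytometry quantifies lipid droplet accumulation (500–530 nm total intensity; droplet/cell object ratio) in oleic acid-fed (400 uM added) Drosophila S3 cells treated with a concentration series. 20 uM Triacsin C defined 100% inhibition.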

[1] = measured here: lipid fluorescence (Fed channel) AC50, cells fed with added oleic acid
[2] = measured here: cell number channel AC50, cells fed with added oleic acid

SMILES: Cc1c(NC(=O)C2CC=CCC2C(=O)O)c(=O)n(-c2ccccc2)n1C (stereo not given)
- cell number change: -9.55%
- AC50 [1]: 32.6 µM [falling, single point]

SMILES: CCN1CCN(C(=S)NCCc2ccccc2)CC1
- cell number change: 23.9%
- AC50 [1]: 29.1 µM [rising, single point]

SMILES: O=C(NC(N1CCCC1)C(Cl)(Cl)Cl)c1ccccc1 (stereo not given)
- cell number change: -5.6%

SMILES: CCN(CC)S(=O)(=O)c1cc(NC(=O)C(C)N2CCN(c3ccccn3)CC2)ccc1C (stereo not given)
- cell number change: 24.3%
- AC50 [1]: 18.4 µM [rising, single point]

SMILES: Clc1nc(-c2cccnc2)nc2scc(-c3ccccc3)c12
- cell number change: 38%
- AC50 [2]: 9.2 µM [rising, partial curve]
- AC50 [1]: 20.6 µM [rising, single point]

SMILES: CC(C)(C)c1ccc(C2CC2C(=O)N/N=C\c2ccc[nH]2)cc1 (stereo not given)
- cell number change: -35.2%
- AC50 [2]: 18.4 µM [falling, single point]
- AC50 [1]: 20.6 µM [falling, partial curve]

SMILES: COC(=O)CN1C(=O)[C@H]2[C@@H](c3ccc(C)o3)N3C(=O)CN(Cc4ccc(-c5ccccc5)cc4)C(=O)[C@@]3(C)[C@H]2C1=O
- cell number change: 0.599%
- AC50 [1]: 2.91 µM [falling, single point]

SMILES: S=C(NCCc1ccccc1)Nc1ccccn1
- AC50 [1]: 18.4 µM [rising, single point]

SMILES: O=C(OCc1c(Cl)cccc1Cl)c1cccnc1
- cell number change: -32.1%
- AC50 [2]: 32.6 µM [falling, single point]

SMILES: CCC(=O)c1ccc(OC(=O)C2CCN(C3=NS(=O)(=O)c4ccccc43)CC2)cc1
- cell number change: 2.89%
- AC50 [1]: 1.64 µM [rising, partial curve]

SMILES: O=[N+]([O-])c1ccc(N2CCN(c3ccc(F)cc3)CC2)cn1
- cell number change: 13.2%
- AC50 [1]: 5.62 µM [rising, single point]

SMILES: Cc1nc(NC(=O)C2CC2)sc1C(=O)Nc1ccc(Br)cc1
- cell number change: 35.2%

SMILES: C/C(=N\N)c1c(-c2ccccc2)c2cc(C)ccc2[nH]c1=O
- cell number change: 12.7%
- AC50 [1]: 0.092 µM [rising, full curve, poor fit]

SMILES: O=C(c1cc2cc(Br)ccc2[nH]1)N1CCc2ccccc21
- cell number change: -12.6%
- AC50 [2]: 6.51 µM [falling, single point]

SMILES: CCC1CCCCN1C(=O)c1c[nH]c2ccc(S(=O)(=O)N(C)c3ccc(Cl)cc3)cc2c1=O (stereo not given)
- cell number change: 77.3%
- AC50 [2]: 18.4 µM [rising, single point]

SMILES: C=C(C)COc1ccc(-c2[nH]ncc2Oc2cccc(OC)c2)c(O)c1
- cell number change: -95.5%
- AC50 [2]: 14.6 µM [falling, partial curve]
- AC50 [1]: 16.4 µM [falling, partial curve]

SMILES: CSc1nnc(SCC(=O)Nc2ccc3[nH]c(=O)[nH]c3c2)s1
- cell number change: -1.81%
- AC50 [1]: 0.00461 µM [falling, full curve, poor fit]

SMILES: CCC1CCCCN1C(=S)NC(=O)c1cccc([N+](=O)[O-])c1 (stereo not given)
- cell number change: -29.7%
- AC50 [1]: 20.6 µM [falling, single point]

SMILES: CCC(C(=O)NCc1ccco1)n1nc(C)n2c(cc3occc32)c1=O (stereo not given)
- cell number change: 29%
- AC50 [1]: 29.1 µM [falling, single point]

SMILES: CCC(=O)Nc1sc2c(c1C#N)CC(C)(C)NC2(C)C
- cell number change: -10.3%
- AC50 [1]: 0.00461 µM [falling, full curve, poor fit]

SMILES: COc1ccc(S(=O)(=O)Nc2ccc(S(=O)(=O)N3CCCC3)cc2)cc1
- cell number change: -5.56%
- AC50 [1]: 0.103 µM [falling, full curve, poor fit]

SMILES: C/C=C/c1ccc(OCCCCOc2ccccc2F)c(OC)c1
- cell number change: 8.99%

SMILES: Cc1cc(C(c2ccc(C)o2)c2ccc(C)o2)c(O)c([N+](=O)[O-])c1
- AC50 [2]: 2.91 µM [falling, single point]

SMILES: CCOC(=O)/C(C#N)=C1/C=CN(C)C(C)=N1
- cell number change: 2.85%
- AC50 [1]: 3.26 µM [rising, partial curve, poor fit]

SMILES: O=C(CN1C(=O)NC2(CCCC2)C1=O)OCC(=O)c1cccc(Cl)c1
- cell number change: -11.6%

SMILES: COc1ccc(OC)c(CNc2ncc(-c3cccc([N+](=O)[O-])c3)n2C)c1
- cell number change: -7.29%
- AC50 [1]: 3.26 µM [falling, full curve]

SMILES: [O-]C1=N/[N+](=C/c2ccccc2Cl)CC1
- cell number change: -0.839%
- AC50 [1]: 1.16 µM [falling, single point]

SMILES: CCc1nn(CCCC(=O)NCc2ccc(OC(C)C)cc2)c(=O)c2cc3occc3n12
- cell number change: 1.53%
- AC50 [1]: 0.0651 µM [rising, full curve, poor fit]

SMILES: O=C(CN1CCc2ccccc2C1)c1cccs1
- cell number change: -1.49%
- AC50 [1]: 0.82 µM [falling, full curve, poor fit]

SMILES: Cc1c(C(C)C)c(=O)n(-c2ccc(S(=O)(=O)NCc3ccccc3)cc2)n1C
- cell number change: -14%

SMILES: Cc1ccc(-n2c(=O)c3c(n4cnnc24)-c2ccccc2CC32CCCCC2)cc1
- cell number change: 48.8%
- AC50 [2]: 29.1 µM [rising, single point]

SMILES: O=C(COc1ccccc1[N+](=O)[O-])OCCCOC(=O)COc1ccccc1[N+](=O)[O-]
- cell number change: 7.6%
- AC50 [2]: 0.0058 µM [rising, full curve, poor fit]

SMILES: C=C(C)COc1ccc(-c2[nH]ncc2-c2ccccc2)c(O)c1
- cell number change: -58.4%
- AC50 [2]: 20.6 µM [falling, single point]
- AC50 [1]: 20.6 µM [falling, partial curve]

SMILES: CCNC(=O)CSc1ncnc2sccc12
- cell number change: 13.4%
- AC50 [1]: 11.6 µM [rising, partial curve]

SMILES: COc1cc(-c2nc(-c3ccc(-c4ccccc4)nc3OC)no2)cc(OC)c1OC
- cell number change: -4.73%
- AC50 [2]: 0.103 µM [falling, full curve, poor fit]
- AC50 [1]: 2.31 µM [rising, partial curve]

SMILES: CCOc1ccc(OCCNCc2ccc(OC(C)C(=O)N(C)C)c(OCC)c2)cc1 (stereo not given)
- AC50 [1]: 2.06 µM [rising, partial curve]

SMILES: CC(=O)Nc1ccc(S(=O)(=O)NCCC(=O)NCCc2ccc(F)cc2)cc1
- cell number change: 14.9%
- AC50 [1]: 13 µM [rising, single point]

SMILES: NC(=O)CC(NC(=O)c1cccc(Br)c1)c1ccc(N2CCN(c3ccc(F)cc3)CC2)c([N+](=O)[O-])c1 (stereo not given)
- cell number change: 2.99%
- AC50 [1]: 6.51 µM [rising, single point]

SMILES: O=S(=O)(c1ccc(F)cc1)c1nc(-c2ccco2)oc1Nc1ccc(F)cc1
- cell number change: 13.5%
- AC50 [1]: 2.06 µM [rising, full curve, poor fit]

SMILES: O=C(NCCC1=CCCCC1)c1ccc(Cl)c(S(=O)(=O)N2CCCCC2)c1
- cell number change: 38%
- AC50 [2]: 35.5 µM [rising, single point]

SMILES: COc1ccc(C(=O)N2CCN(c3ccccn3)CC2)cc1[N+](=O)[O-]
- cell number change: 25.4%
- AC50 [1]: 15.8 µM [rising, single point]

SMILES: C=CCn1c(SCC(=O)NC2CC2)nnc1C1CC1
- cell number change: 8.56%

SMILES: Cn1c(=O)[nH]c(=O)c2c1nc(CN1CCN(c3ccc(F)cc3)CC1)n2CCN1CCOCC1
- cell number change: -49.8%
- AC50 [2]: 0.206 µM [falling, full curve]
- AC50 [1]: 29.1 µM [falling, single point]

SMILES: O=C(COC(=O)CCS(=O)(=O)c1ccccc1)Nc1ccc(N2CCCCC2)cc1
- cell number change: 15.6%
- AC50 [1]: 0.164 µM [rising, full curve, poor fit]

SMILES: CCOc1ccc(OCC)c(-c2c(=O)n(OCc3ccccc3Br)c3ccccc3[n+]2[O-])c1
- cell number change: -21.2%
- AC50 [1]: 2.59 µM [falling, full curve, poor fit]

SMILES: CO/N=C/c1ccc(N2CCN(C(=O)c3ccc(C)cc3)CC2)c([N+](=O)[O-])c1
- cell number change: -11.3%
- AC50 [1]: 18.4 µM [falling, partial curve]

SMILES: Cc1nc(NC(=O)c2ccc(F)cc2)sc1C(=O)Nc1ccc2c(c1)CCC2
- cell number change: 22.4%
- AC50 [1]: 25.9 µM [rising, single point]

SMILES: CN1CCN(CC(=O)N/N=C\c2c[nH]c3ccccc23)CC1
- cell number change: 53.5%
- AC50 [2]: 29.1 µM [rising, single point]

SMILES: Cc1ccc(/C=N/n2c(-c3cccc(Cl)c3)n[nH]c2=S)o1
- cell number change: -27.1%
- AC50 [1]: 32.6 µM [falling, single point]

SMILES: CC(C)(C)NC(=O)COC(=O)/C=C/c1ccc(F)cc1
- cell number change: 21.3%
- AC50 [1]: 8.2 µM [rising, partial curve, poor fit]

SMILES: Cc1cccc(NC(=S)N2CCN(S(=O)(=O)c3cccc(F)c3)CC2)c1
- cell number change: 24.8%
- AC50 [1]: 23.1 µM [rising, single point]

SMILES: COCCC1CCCCN1C(=O)c1cc(COc2ccc(-n3cncn3)cc2)on1 (stereo not given)
- cell number change: -35.1%
- AC50 [2]: 18.4 µM [falling, single point]

SMILES: CCCS(=O)(=O)N1CCCC(C(=O)NCCCN2CCN(c3ccc(F)cc3)CC2)C1 (stereo not given)
- cell number change: -1.76%
- AC50 [1]: 0.00461 µM [rising, full curve, poor fit]

SMILES: C/C(=N\N1C(=O)c2ccccc2NC1c1ccccc1)c1ccccc1O (stereo not given)
- cell number change: 38.7%
- AC50 [1]: 29.1 µM [rising, single point]

SMILES: COc1ccc(NS(=O)(=O)N2CCOCC2)cc1
- cell number change: 2.89%
- AC50 [1]: 29.1 µM [rising, single point]

SMILES: CCn1c(CC(=O)Nc2ccc(Cl)cc2)nnc1SCC(=O)N1CCOCC1
- cell number change: 7.03%

SMILES: COCCN(C(=O)CCN1C(=O)C2CC=CCC2C1=O)c1c(N)n(CC(C)C)c(=O)[nH]c1=O (stereo not given)
- cell number change: 2.98%
- AC50 [1]: 0.291 µM [falling, full curve, poor fit]

SMILES: CCOC(=O)c1[nH]c2cc(OC)c(OC)cc2c1NC(=O)C(C)N1CCN(Cc2ccccc2)CC1 (stereo not given)
- cell number change: 80.5%
- AC50 [2]: 9.2 µM [rising, partial curve]
- AC50 [1]: 7.31 µM [rising, partial curve]

SMILES: Cc1nc(C(F)(F)F)nc(Nc2ccc(N=Nc3ccccc3)cc2)c1C#N
- cell number change: 30%
- AC50 [1]: 20.6 µM [rising, single point]
